In patent publication US20210388089A1:
These are yes or no findings as the source states them, for the method shown. For some assays here: In cells and extracts the contact can be indirect. Some entries that bind do so weakly or less than the wild type.

Sequences of proteins named here, by UniProt entry; tags and fusion partners are left off. A change or cut given only in a name is not applied to a line headed by its entry. Residues count along the entry.
UniProt P08575, residues 26-1306: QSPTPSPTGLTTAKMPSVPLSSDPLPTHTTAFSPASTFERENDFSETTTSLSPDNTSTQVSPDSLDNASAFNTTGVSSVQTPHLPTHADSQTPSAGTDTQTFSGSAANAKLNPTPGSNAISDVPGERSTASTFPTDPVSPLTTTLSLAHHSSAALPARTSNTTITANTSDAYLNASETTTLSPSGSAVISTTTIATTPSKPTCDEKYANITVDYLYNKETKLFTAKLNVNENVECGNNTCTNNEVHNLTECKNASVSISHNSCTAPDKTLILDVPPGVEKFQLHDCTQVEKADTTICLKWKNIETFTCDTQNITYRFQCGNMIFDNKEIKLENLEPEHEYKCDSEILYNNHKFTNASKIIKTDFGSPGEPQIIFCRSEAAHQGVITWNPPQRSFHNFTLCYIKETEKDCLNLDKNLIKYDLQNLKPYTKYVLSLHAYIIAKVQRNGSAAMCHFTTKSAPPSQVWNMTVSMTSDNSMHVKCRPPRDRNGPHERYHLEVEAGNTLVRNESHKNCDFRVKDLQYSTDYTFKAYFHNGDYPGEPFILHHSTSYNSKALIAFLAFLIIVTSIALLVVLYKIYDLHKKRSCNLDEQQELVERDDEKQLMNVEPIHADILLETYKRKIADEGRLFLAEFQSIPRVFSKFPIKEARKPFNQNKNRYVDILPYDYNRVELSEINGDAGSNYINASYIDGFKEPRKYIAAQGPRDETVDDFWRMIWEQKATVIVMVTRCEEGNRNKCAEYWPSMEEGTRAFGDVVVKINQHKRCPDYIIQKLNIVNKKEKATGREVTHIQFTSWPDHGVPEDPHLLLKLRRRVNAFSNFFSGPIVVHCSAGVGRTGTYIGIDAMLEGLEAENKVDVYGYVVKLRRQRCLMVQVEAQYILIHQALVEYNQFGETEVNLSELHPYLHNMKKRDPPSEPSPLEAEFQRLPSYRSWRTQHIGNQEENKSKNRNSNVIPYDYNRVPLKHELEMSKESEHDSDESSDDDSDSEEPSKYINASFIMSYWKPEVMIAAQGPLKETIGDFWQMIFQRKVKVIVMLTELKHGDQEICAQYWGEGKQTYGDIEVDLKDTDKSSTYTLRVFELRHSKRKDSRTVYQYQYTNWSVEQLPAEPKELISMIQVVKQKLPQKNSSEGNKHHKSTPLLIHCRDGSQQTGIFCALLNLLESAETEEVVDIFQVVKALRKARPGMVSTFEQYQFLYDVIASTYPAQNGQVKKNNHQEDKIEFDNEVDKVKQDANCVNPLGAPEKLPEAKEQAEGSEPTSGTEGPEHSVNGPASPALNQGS
UniProt O00481: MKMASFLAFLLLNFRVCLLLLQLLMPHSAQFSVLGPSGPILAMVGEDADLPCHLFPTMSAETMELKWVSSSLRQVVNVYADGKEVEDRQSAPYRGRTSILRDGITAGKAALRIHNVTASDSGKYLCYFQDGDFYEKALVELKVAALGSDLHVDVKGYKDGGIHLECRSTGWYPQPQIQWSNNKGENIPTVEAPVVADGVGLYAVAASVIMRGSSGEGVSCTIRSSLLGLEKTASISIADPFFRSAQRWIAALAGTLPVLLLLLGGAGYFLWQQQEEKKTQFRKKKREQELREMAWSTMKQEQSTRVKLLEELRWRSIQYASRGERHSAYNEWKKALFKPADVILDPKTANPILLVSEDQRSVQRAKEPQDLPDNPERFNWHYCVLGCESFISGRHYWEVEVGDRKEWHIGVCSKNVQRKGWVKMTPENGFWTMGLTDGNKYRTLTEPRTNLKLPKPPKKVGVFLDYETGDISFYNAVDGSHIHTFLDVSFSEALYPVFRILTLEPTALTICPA

Columns and labels:
[1] = target: CD45 on the surface of Jurkat cells (clone E6-1) and primary human αβ T cells (human) (UniProt P08575); assay: co-immunoprecipitation with BTN3A1-Fc from OKT3-activated primary αβ T cells after crosslinking, LC-MS/MS
[2] = target: CD45 on the surface of Jurkat cells (clone E6-1) and primary human αβ T cells (human) (UniProt P08575); assay: flow cytometry, Fc protein on Jurkat E6-1 (CD45+) vs. J45.01 (CD45 negative) cells
[3] = target: CD45 on the surface of Jurkat cells (clone E6-1) and primary human αβ T cells (human) (UniProt P08575); assay: flow cytometry, BTN3A1 on primary αβ T cells with or without CRISPR ablation of CD45
[4] = target: CD45 on the surface of Jurkat cells (clone E6-1) and primary human αβ T cells (human) (UniProt P08575); assay: flow cytometry, FIG. 12B upper panels
[5] = target: CD45 on the surface of Jurkat cells (clone E6-1) and primary human αβ T cells (human) (UniProt P08575); assay: flow cytometry, FIG. 12C

Measured: binding

BTN3A1-Fc fusion protein (R&D systems Cat #8539-BT-050) (from UniProt O00481 30-254)
binds: all assays above
